From patent US20060172958A1 (published 2006)

Target: T1, hBoo (Bcl-B) yeast two-hybrid bait from pAS2 (human, UniProt Q9HD36 1-204)
T1 construct: also called pAS2-hBoo; pAS2-Bcl-B; not shown: bait fusion partner encoded by the pAS2 vector
T1 sequence (looked up): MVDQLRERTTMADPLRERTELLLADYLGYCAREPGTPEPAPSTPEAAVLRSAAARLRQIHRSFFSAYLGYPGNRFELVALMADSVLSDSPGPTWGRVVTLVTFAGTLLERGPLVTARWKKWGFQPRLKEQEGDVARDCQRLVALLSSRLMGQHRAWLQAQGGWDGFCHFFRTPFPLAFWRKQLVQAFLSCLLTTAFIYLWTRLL
Assay: yeast two-hybrid, hBoo bait against human liver cDNA library

B1: yeast two-hybrid library clone encoding amino acids 103-277 of phospholipid scramblase 3 (other)
chain: CNRYELRSGAGQPLGQAAEESNCCARLCCGARRPLRVRLADPGDREVLRLLRPLHCGCSCCPCGLQEMEVQAPPGTTIGHVLQTWHPFLPKFSIQDADRQTVLRVVGPCWTCGCGTDTNFEVKTRDESRSVGRISKQWGGLVREALTDADDFGLQFPLDLDVRVKAVLLGATFLI
notes: also called PLS3 clone; cDNA cloned from the yeast two-hybrid screen; not shown: fusion partner of the Clontech MatchMaker human liver library vector
- binding result: binds
